Results are given in words; binding and its absence hold for the method and conditions named. Some entries that bind do so weakly or less than the wild type. Sequences can lack the tags named with a protein.
Key:
mouse TNC rCd4-His-FBG [1] = target: T1, mouse TNC rCd4-His-FBG (rat; mouse, UniProt P05540 207-386); assay: ELISA (mouse) and HTRF (human) screens of scFv
T1 construct: domain: domains 3 and 4; also called Mu TNC; mouse TNC FBG
T1 sequence: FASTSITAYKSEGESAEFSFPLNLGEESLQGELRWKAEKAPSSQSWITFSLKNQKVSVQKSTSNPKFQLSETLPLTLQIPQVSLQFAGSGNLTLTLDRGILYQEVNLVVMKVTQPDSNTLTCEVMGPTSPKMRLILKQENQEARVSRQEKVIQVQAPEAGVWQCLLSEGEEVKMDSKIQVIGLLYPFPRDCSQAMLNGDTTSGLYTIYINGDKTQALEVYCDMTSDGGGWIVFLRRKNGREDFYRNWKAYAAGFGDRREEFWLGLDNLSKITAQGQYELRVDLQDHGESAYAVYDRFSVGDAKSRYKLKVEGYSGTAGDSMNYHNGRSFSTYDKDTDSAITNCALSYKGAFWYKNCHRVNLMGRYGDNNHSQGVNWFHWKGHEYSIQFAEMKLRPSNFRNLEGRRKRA

mouse TNC rCd4-His-FBG [2] = target: T1, mouse TNC rCd4-His-FBG; assay: ELISA and HTRF screens of scFv
[3] = target: T2, rat TNC rCd4-His-FBG (rat) (UniProt P05540); assay: SPR, BIAcore T100, 25 C, Fab captured, rCd4-FBG injected
T2 sequence: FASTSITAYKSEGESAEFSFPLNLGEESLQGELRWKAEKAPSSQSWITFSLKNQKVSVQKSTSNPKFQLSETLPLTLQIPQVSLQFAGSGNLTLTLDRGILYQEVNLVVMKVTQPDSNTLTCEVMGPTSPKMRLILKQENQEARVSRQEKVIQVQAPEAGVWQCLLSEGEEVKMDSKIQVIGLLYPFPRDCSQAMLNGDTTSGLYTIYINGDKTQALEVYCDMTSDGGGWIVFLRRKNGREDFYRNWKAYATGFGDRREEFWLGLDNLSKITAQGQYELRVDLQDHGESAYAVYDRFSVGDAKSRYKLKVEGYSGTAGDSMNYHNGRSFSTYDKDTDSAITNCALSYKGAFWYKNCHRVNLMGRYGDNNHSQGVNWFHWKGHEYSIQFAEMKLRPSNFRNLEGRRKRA

mouse TNC rCd4-His-FBG [4] = target: T1, mouse TNC rCd4-His-FBG; assay: as above
mouse TNC rCd4-His-FBG [5] = target: T1, mouse TNC rCd4-His-FBG; assay: SPR, 37 C, purified IgG4 captured on anti-human Fc

B1: 165_13_D1 scFv (scFv, V domains shown)
VH: QVQLVESGGGLVQPGRSLRLSCAASGFTFDDYAMHWVRQAPGKGLEWVSGISGSGGSTYYADSVKGRFTISRDNAKNSLYLQMNSLRAEDTALYYCAKGTRGEGDTFDIWGQGTMVTVSS
VL: DIQMTQSPASLPTPVGDRVTITCRASQYIQGFLNWYQQKPGKAPKLLIYDASNLETGVPSRFSGSGSGTDFTLTISSLQPEDFATYYCQQSYSTPQTFGQGTKVDIK
notes: VH CDR3 GTRGEGDTFDI; not shown: scFv linker, domain order, and the tags of the pSANG10 vector (FLAG and others)
binding (mouse TNC rCd4-His-FBG [1]): binds
binding (mouse TNC rCd4-His-FBG [2]): binds

B2: 165_13_A4 scFv (scFv, V domains shown)
VH: QVQLVESGGGLVQPGRSLRLSCAASGFTFDDYAMHWVRQAPGKGLEWVSGISGSGGSTYYADSVKGRFTISRDNAKNSLYLQMNSLRAEDTALYYCAKDKYPVLDTFDIWGQGTMVTVSS
VL: DIQMTQSPASLPTPVGDRVTITCRASQYIQGFLNWYQQKPGKAPKLLIYDASNLETGVPSRFSGSGSGTDFTLTISSLQPEDFATYYCQQSYSTPQTFGQGTKVDIK
notes: VH CDR3 DKYPVLDTFDI; not shown: scFv linker, domain order, and the tags of the pSANG10 vector (FLAG and others)
binding (mouse TNC rCd4-His-FBG [1]): binds
binding (mouse TNC rCd4-His-FBG [2]): binds

B3: 165_13_B1 scFv (scFv, V domains shown)
VH: QVQLVESGGGLVQPGRSLRLSCAASGFTFDDYAMHWVRQAPGKGLEWVSGISGSGGSTYYADSVKGRFTISRDNAKNSLYLQMNSLRAEDTALYYCAKVMSSMEDAFDIWGQGTMVTVSS
VL: DIQMTQSPASLPTPVGDRVTITCRASQYIQGFLNWYQQKPGKAPKLLIYDASNLETGVPSRFSGSGSGTDFTLTISSLQPEDFATYYCQQSYSTPQTFGQGTKVDIK
notes: VH CDR3 VMSSMEDAFDI; not shown: scFv linker, domain order, and the tags of the pSANG10 vector (FLAG and others)
binding (mouse TNC rCd4-His-FBG [1]): binds
binding (mouse TNC rCd4-His-FBG [2]): binds

B4: 165_13_B3 scFv (scFv, V domains shown, not shown: small tags and cut ends)
VH: QVQLVESGGGLVQPGRSLRLSCAASGFTFDDYAMHWVRQAPGKGLEWVSGISGSGGSTYYADSVKGRFTISRDNAKNSLYLQMNSLRAEDTALYYCAKALARGHDTFDIWGQGTMVTVSS
VL: DIQMTQSPASLPTPVGDRVTITCRASQYIQGFLNWYQQKPGKAPKLLIYDASNLETGVPSRFSGSGSGTDFTLTISSLQPEDFATYYCQQSYSTPQTFGQGTKVDIK
notes: VH CDR3 ALARGHDTFDI
binding (mouse TNC rCd4-His-FBG [1]): binds
binding (mouse TNC rCd4-His-FBG [2]): binds

B5: 165_13_B6 scFv (scFv, V domains shown)
VH: QVQLVESGGGLVQPGRSLRLSCAASGFTFDDYAMHWVRQAPGKGLEWVSGISGSGGSTYYADSVKGRFTISRDNAKNSLYLQMNSLRAEDTALYYCAKGQKGEGDTFDIWGQGTMVTVSS
VL: DIQMTQSPASLPTPVGDRVTITCRASQYIQGFLNWYQQKPGKAPKLLIYDASNLETGVPSRFSGSGSGTDFTLTISSLQPEDFATYYCQQSYSTPQTFGQGTKVDIK
notes: VH CDR3 GQKGEGDTFDI; not shown: scFv linker, domain order, and the tags of the pSANG10 vector (FLAG and others)
binding (mouse TNC rCd4-His-FBG [1]): binds
binding (mouse TNC rCd4-His-FBG [2]): binds

B6: 165_13_C3 scFv (scFv, V domains shown)
VH: QVQLVESGGGLVQPGRSLRLSCAASGFTFDDYAMHWVRQAPGKGLEWVSGISGSGGSTYYADSVKGRFTISRDNAKNSLYLQMNSLRAEDTALYYCAKSYQSDEDAFDIWGQGTMVTVSS
VL: DIQMTQSPASLPTPVGDRVTITCRASQYIQGFLNWYQQKPGKAPKLLIYDASNLETGVPSRFSGSGSGTDFTLTISSLQPEDFATYYCQQSYSTPQTFGQGTKVDIK
notes: VH CDR3 SYQSDEDAFDI; Antibody C3 of the B12 family; not shown: scFv linker, domain order, and the tags of the pSANG10 vector (FLAG and others)
binding (mouse TNC rCd4-His-FBG [1]): binds
binding (mouse TNC rCd4-His-FBG [2]): binds

B7: 165_13_D4 scFv (scFv, V domains shown)
VH: QVQLVESGGGLVQPGRSLRLSCAASGFTFDDYAMHWVRQAPGKGLEWVSGISGSGGSTYYADSVKGRFTISRDNAKNSLYLQMNSLRAEDTALYYCAKGTVGEGDTFDIWGQGTMVTVSS
VL: DIQMTQSPASLPTPVGDRVTITCRASQYIQGFLNWYQQKPGKAPKLLIYDASNLETGVPSRFSGSGSGTDFTLTISSLQPEDFATYYCQQSYSTPQTFGQGTKVDIK
notes: VH CDR3 GTVGEGDTFDI; not shown: scFv linker, domain order, and the tags of the pSANG10 vector (FLAG and others)
binding (mouse TNC rCd4-His-FBG [1]): binds
binding (mouse TNC rCd4-His-FBG [2]): binds

B8: 180_11_F5 scFv (scFv, V domains shown, not shown: small tags and cut ends)
VH: QVQLVESGGGLVQPGRSLRLSCAASGFTFDDYAMHWVRQAPGKGLEWVSGISGSGGSTYYADSVKGRFTISRDNAKNSLYLQMNSLRAEDTALYYCAKVMRTGLDTFDIWGQGTMVTVSS
VL: DIQMTQSPASLPTPVGDRVTITCRASQYIQGFLNWYQQKPGKAPKLLIYDASNLETGVPSRFSGSGSGTDFTLTISSLQPEDFATYYCQQSYSTPQTFGQGTKVDIK
notes: VH CDR3 VMRTGLDTFDI
binding (mouse TNC rCd4-His-FBG [1]): binds
binding (mouse TNC rCd4-His-FBG [2]): binds

B9: B12 Fab (Fab, V domains shown)
VH: QVQLVESGGGLVQPGRSLRLSCAASGFTFDDYAMHWVRQAPGKGLEWVSGISGSGGSTYYADSVKGRFTISRDNAKNSLYLQMNSLRAEDTALYYCAKDISAVPDTFDIWGQGTMVTVSS
VL: DIQMTQSPASLPTPVGDRVTITCRASQYIQGFLNWYQQKPGKAPKLLIYDASNLETGVPSRFSGSGSGTDFTLTISSLQPEDFATYYCQQSYSTPQTFGQGTKVDIKR
notes: Monomeric Fab from a dual promoter Fab vector; also called B12 parental antibody
binding [3]: binds
binding (mouse TNC rCd4-His-FBG [4]): binds

B10: 165_13_B1 IgG4 (antibody, V domains shown)
VH: QVQLVESGGGLVQPGRSLRLSCAASGFTFDDYAMHWVRQAPGKGLEWVSGISGSGGSTYYADSVKGRFTISRDNAKNSLYLQMNSLRAEDTALYYCAKVMSSMEDAFDIWGQGTMVTVSS
VL: DIQMTQSPASLPTPVGDRVTITCRASQYIQGFLNWYQQKPGKAPKLLIYDASNLETGVPSRFSGSGSGTDFTLTISSLQPEDFATYYCQQSYSTPQTFGQGTKVDIKR
binding (mouse TNC rCd4-His-FBG [5]): binds

B11: 165_13_D1 IgG4 (antibody, V domains shown)
VH: QVQLVESGGGLVQPGRSLRLSCAASGFTFDDYAMHWVRQAPGKGLEWVSGISGSGGSTYYADSVKGRFTISRDNAKNSLYLQMNSLRAEDTALYYCAKGTRGEGDTFDIWGQGTMVTVSS
VL: DIQMTQSPASLPTPVGDRVTITCRASQYIQGFLNWYQQKPGKAPKLLIYDASNLETGVPSRFSGSGSGTDFTLTISSLQPEDFATYYCQQSYSTPQTFGQGTKVDIKR
binding (mouse TNC rCd4-His-FBG [5]): binds

Reference: patent US20190225680A1 (NASCIENT, published 2019)
